Our source for the binding values is PMC10035768.

The chains behind the UniProt entries cited, without tags or fusion partners. Where a name states a change or a piece, a line headed by the entry shows the natural chain unless it says otherwise. A line that says so, or that is headed by a name, gives the form on record, which may keep a tag or linker.
UniProt P31946: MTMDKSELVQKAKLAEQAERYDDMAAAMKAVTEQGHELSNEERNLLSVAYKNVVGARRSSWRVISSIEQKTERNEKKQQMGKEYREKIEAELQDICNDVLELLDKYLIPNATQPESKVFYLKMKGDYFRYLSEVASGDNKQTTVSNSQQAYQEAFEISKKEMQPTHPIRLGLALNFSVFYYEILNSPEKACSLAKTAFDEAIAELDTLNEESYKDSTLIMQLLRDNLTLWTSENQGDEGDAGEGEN
0N3R tau expressed in HEK 293T cells (P10636-2, form named): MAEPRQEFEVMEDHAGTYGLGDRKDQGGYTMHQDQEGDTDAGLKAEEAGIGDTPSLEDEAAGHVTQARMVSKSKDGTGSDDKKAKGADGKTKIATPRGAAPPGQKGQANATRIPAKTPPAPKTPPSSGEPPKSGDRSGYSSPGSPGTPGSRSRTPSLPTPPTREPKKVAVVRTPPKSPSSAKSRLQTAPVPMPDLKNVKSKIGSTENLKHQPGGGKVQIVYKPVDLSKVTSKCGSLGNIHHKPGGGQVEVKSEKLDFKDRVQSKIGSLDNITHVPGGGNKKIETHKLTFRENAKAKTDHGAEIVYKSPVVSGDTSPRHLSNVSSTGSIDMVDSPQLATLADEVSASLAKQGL
0N4R tau expressed in HEK 293T cells (P10636-6, form named): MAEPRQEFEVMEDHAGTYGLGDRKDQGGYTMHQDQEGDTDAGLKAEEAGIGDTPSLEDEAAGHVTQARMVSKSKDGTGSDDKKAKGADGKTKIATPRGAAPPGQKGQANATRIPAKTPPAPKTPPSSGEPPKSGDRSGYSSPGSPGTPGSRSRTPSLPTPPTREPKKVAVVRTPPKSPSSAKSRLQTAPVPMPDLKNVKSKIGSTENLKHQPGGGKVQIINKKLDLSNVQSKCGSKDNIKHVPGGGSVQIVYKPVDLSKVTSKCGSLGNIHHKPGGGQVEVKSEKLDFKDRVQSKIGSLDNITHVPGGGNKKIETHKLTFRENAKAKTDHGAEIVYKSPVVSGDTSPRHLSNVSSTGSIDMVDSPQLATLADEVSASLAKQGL

The assay concerns the target FLAG HA 14-3-3 β expressed in HEK 293T cells (UniProt P31946). The assay can be described thus: co-IP; HEK 293T cells co-transfected with 3R or 4R tau and FLAG-14-3-3-β; 500 μg lysate, anti-FLAG M2 on protein A/G magnetic beads; Western blot with HT7 (tau) and anti-14-3-3 β.

Results are given in words; binding and its absence hold for the method and conditions named. Binding seen in cells or lysates may run through a third protein. Some entries that bind do so weakly or less than the wild type.

Turning to “0N3R tau expressed in HEK 293T cells (from UniProt P10636-2 1-352)”, the binding result was “no binding”.
Then “0N4R tau expressed in HEK 293T cells (from UniProt P10636-6 1-383)”, with “binds”.
